The source of these data is PMC9454446.

Chains of the proteins cited; added tags and fusions are not shown. Lines headed by an entry give the natural chain unless they say otherwise; changes in a name come on top.
UniProt P78536: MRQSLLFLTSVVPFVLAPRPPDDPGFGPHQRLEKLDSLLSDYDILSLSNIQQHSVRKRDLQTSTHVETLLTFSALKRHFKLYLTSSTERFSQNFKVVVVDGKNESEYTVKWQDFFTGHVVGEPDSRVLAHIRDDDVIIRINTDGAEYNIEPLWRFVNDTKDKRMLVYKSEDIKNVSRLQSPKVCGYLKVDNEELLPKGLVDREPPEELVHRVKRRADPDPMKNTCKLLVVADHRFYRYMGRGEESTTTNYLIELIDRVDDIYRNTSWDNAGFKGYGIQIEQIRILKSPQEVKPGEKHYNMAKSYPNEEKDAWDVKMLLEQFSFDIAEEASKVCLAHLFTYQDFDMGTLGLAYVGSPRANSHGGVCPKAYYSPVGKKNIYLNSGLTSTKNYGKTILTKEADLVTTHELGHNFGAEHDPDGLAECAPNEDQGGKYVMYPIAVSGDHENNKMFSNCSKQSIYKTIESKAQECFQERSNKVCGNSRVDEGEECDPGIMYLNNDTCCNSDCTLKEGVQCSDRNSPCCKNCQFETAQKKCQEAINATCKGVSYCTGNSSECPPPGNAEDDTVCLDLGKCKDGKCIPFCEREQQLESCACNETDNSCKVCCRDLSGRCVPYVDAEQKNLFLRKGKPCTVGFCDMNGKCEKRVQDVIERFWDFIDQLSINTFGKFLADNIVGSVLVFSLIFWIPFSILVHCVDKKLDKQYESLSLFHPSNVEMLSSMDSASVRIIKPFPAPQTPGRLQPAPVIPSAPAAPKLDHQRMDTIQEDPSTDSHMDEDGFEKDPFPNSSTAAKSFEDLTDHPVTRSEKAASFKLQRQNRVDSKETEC

Assay [1] has as its target ADAM17 fused to a fragment of Gaussia princeps luciferase, P78536. The assay can be described thus: split reporter; Gaussia princeps luciferase protein complementation in transfected HEK293T cells; cells lysed in passive lysis buffer, coelenterazine added; normalized luciferase ratio (NLR) above 3.5 taken as specific interaction. The conditions noted are these: remark: other sources report otherwise.

The target in assay [2] is ADAM17 fused to a fragment of Gaussia princeps luciferase (UniProt P78536). Described as above.
The target in assay [3] is ADAM17-YPet (UniProt P78536). The assay can be described thus: FRET or BRET; FRET microscopy as in HEK293T, but in ADAM10/ADAM17-deficient HEK293T cells (Figure S2A).
The target of assay [4] is ADAM17-YPet (UniProt P78536). The assay can be described thus: FRET or BRET; FRET microscopy of live transfected HEK293T cells; Tetraspanin-CyPet as donor, ADAM17-YPet or TNFα-YPet as acceptor; precision FRET after subtraction of spectral bleed through.

Results are given in words; binding and its absence hold for the method and conditions named. In cells and extracts the contact can be indirect. For some assays here: Binding can be weak; no strength is given. For some assays here: Tags and fused reporters may be left off the sequences shown.

B1: CD9 fused to a fragment of Gaussia princeps luciferase, P21926 1-228 (protein)
chain: MPVKGGTKCIKYLLFGFNFIFWLAGIAVLAIGLWLRFDSQTKSIFEQETNNNNSSFYTGVYILIGAGALMMLVGFLGCCGAVQESQCMLGLFFGFLLVIFAIEIAAAIWGYSHKDEVIKEVQEFYKDTYNKLKTKDEPQRETLKAIHYALNCCGLAGGVEQFISDICPKKDVLETFTVKSCPDAIKEVFDNKFHIIGAVGIGIAVVMIFGMIFSMILCCAIRRNREMV
B1: in assay [1], the binding entry is listed as “no binding”.

B2: Tspan8 fused to a fragment of Gaussia princeps luciferase (protein, UniProt P19075 1-237)
chain: MAGVSACIKYSMFTFNFLFWLCGILILALAIWVRVSNDSQAIFGSEDVGSSSYVAVDILIAVGAIIMILGFLGCCGAIKESRCMLLLFFIGLLLILLLQVATGILGAVFKSKSDRIVNETLYENTKLLSATGESEKQFQEAIIVFQEEFKCCGLVNGAADWGNNFQHYPELCACLDKQRPCQSYNGKQVYKETCISFIKDFLAKNLIIVIGISFGLAVIEILGLVFSMVLYCQIGNK
In the case of B2, the binding result in assay [2] is “binds”.

B3: Tspan8-CyPet (protein, UniProt P19075 1-237)
chain: MAGVSACIKYSMFTFNFLFWLCGILILALAIWVRVSNDSQAIFGSEDVGSSSYVAVDILIAVGAIIMILGFLGCCGAIKESRCMLLLFFIGLLLILLLQVATGILGAVFKSKSDRIVNETLYENTKLLSATGESEKQFQEAIIVFQEEFKCCGLVNGAADWGNNFQHYPELCACLDKQRPCQSYNGKQVYKETCISFIKDFLAKNLIIVIGISFGLAVIEILGLVFSMVLYCQIGNK
For the molecule B3, the binding entry in the assay with ADAM17-YPet [3] and with ADAM17-YPet [4] was “binds” in each case.

B4: CD81 fused to a fragment of Gaussia princeps luciferase (protein, UniProt P60033 1-236)
chain: MGVEGCTKCIKYLLFVFNFVFWLAGGVILGVALWLRHDPQTTNLLYLELGDKPAPNTFYVGIYILIAVGAVMMFVGFLGCYGAIQESQCLLGTFFTCLVILFACEVAAGIWGFVNKDQIAKDVKQFYDQALQQAVVDDDANNAKAVVKTFHETLDCCGSSTLTALTTSVLKNNLCPSGSNIISNLFKEDCHQKIDDLFSGKLYLIGIAAIVVAVIMIFEMILSMVLCCGIRNSSVY
Take B4: the binding entry in assay [2] was “binds”.
